# Experimental data as given in PubChem BioAssay AID1508600 (Functional Genomics Laboratory (NCATS/FGL), 2020).
# About 3,700 (7%) of roughly 53,000 sequences were called active.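 Rule for the calls: active = gene knockdowns whose robust z-score for IL-1 alpha signal is at least 2 or at most -2, so actives lie on both sides; inactive = the rest.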 This is one part of the list.
# Assay: Components of the Cytosolic LPS Sensing Pathway: Gene Identification via Genome-wide siRNA Screen;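 note: robust z of the log signal after scaling to non-targeting control siRNA wells of the plate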
# Conditions: RAW264.7 macrophages, IL-1a HTRF, actives lie on both sides, screened at 100 nM (by protocol), cells primed 5 h with Pam3CSK4 first
# Procedure, shortened: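 RAW264.7; siRNA 100 nM final, RNAiMAX, 48h 37 degrees C; Pam3CSK4 5 h; LipidA + TransIT-TKO 24 h; IL-1a HTRF; CellTiter-Glo viability; robust z vs negative-control median.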
row,Sequence,z-score
1,GCCGACAGAUUGAAAUUCGTT against Supv3l1,active: 2.79
2,GGGAAGGUGGUGGAUCUACTT against Adss,inactive: 0.351
3,GGCUUUUCUGGCUAUCCACTT against Anxa7,inactive: -0.774
4,CCAUUUCUAAGUGUGAAAGTT against Vsir,inactive: -0.196
5,GGCCUGGAAGUCAUAUCUGTT against Grhl2,inactive: -0.293
6,GGAUAUGACUGAUAUUGAUTT against Il18,inactive: 0.164
7,GGUAAAAACCAGACAGAUGTT against Olfr835,inactive: 0.412
8,CGUCGUAGCAAACCACCAATT against Tnf,inactive: -1.07
9,GGGACUUCAAAAGCAAGAATT against Acvr2b,inactive: 0.209
10,CGGGCUCUUGUAGAUUUCATT against Ccdc86,active: 3.22
11,CCGGUCACUUGAAAUCAUGTT against Spp2,inactive: -0.976
12,GCAUUGAGUGCAUUAGAAUTT against Gnai1,inactive: -1.28
13,GGCUACAUUGUCUCAUUGUTT against Opn1mw,inactive: -0.59
14,CCUGGUGUAGAAGUAUAUUTT against Lcat,inactive: -0.299
15,GCACAAUCUUGUCAAAUUGTT against Birc2,inactive: -0.934
16,GGUUCUUGUUUGUUGUGGUTT against Olfr94,inactive: -0.395
17,GGUGAUAUGUGUGGGCUUGTT against Fahd2a,active: -2.06
18,GCAGUGUUUACUUAUCACGTT against Il10ra,inactive: 0.472
19,CCUUUUGAGAGCUCCAGAUTT against Ptrh1,inactive: -0.273
20,GGCCUUUGAUGACAUGUACTT against Bpifb1,inactive: -0.378
21,GCUGCUGGAUGCAACCAAATT against Slc16a3,inactive: -0.379
22,GGAAAUCUCUGGGAUAAUUTT against Hsd11b1,inactive: 0.463
23,GGAGACAAGCUAAUUGAGATT against Ppp1r8,inactive: -0.584

row,Sequence,z-score
1,CCUCAUCAAUUGGUUAGAATT against Brip1,inactive: -0.469
2,ACACUCCUAAAUUGAUCAUTT against Olfr1258,inactive: -0.282
3,CGGCAAAUUCGUGAAAAGGTT against Olfr575,inactive: 0.118
4,GCUCACUUGAUUCUGGUAATT against Ifnz,inactive: 0.416
5,GGUCUUUUUAUCCCAUUGUTT against Olfr1298,inactive: -1.93
6,GGCAACUCUCGAAUCUUUUTT against Abhd14a,inactive: -0.133
7,GGACUCUGUCCUUUUCAAATT against Wdr66,inactive: -0.599
8,GGGAAGAUCACAUUUUCGCTT against Ephx2,inactive: 0.0157
9,GGUAUUAUCUAACUCUAGCTT against Slc25a32,inactive: 1.59
10,CCAGCGAACAAAAUGAGGATT against Dusp23,inactive: 0.126
11,GGGCAUGCCCAAGAGAAUATT against Tcp1,inactive: 0.349
12,GGAAAUCUUCAGAAAAAGATT against Gucy1a1,inactive: -0.434
13,GCUGACACAUUUUCACAUGTT against Itgax,inactive: 1.19
14,GACUACAUUUAUAGCCCAATT against Olfr1262,inactive: -0.166
15,CGCUGCUAAGAAUCAUCUATT against Ednrb,inactive: 0.287
16,GGACAUCUGGCUAAGGAACTT against Duxbl1,inactive: -1.05
17,GGGACUUGCCUUUCAUUCUTT against Acads,inactive: 0.921
18,GGCUUUUAUUGUCCUGAAUTT against Acsm3,inactive: -0.299
19,CCAUUAAUAUCUUCUCUUCTT against Olfr1079,inactive: 0.735
20,CGCAUCCAAGCUGAUAAAGTT against Stoml3,inactive: -0.406
21,GGAAAAGUUAGCGUGUAAUTT against Prkcz,inactive: -1.66
22,GGCUGGCUGGAAAAAAGGUTT against Gzf1,inactive: -0.708
23,GCCUGGUUACAGCAUUAACTT against Rimkla,inactive: -1.75

row,Sequence,z-score
1,GGACAGACAGGUCUAGUUATT against Brsk1,inactive: 0.976
2,CCUUUUAUGCUAGUACUGATT against Olfr1504,inactive: -1.53
3,GCUGAGAAUGUGGUAACAGTT against Dnaaf6,inactive: -0.847
4,GCCCUCAGGUGGUUCUUAATT against Heatr3,inactive: 0.443
5,GCUAGACCAACCUGAUUGGTT against Necap1,inactive: -1.15
6,GGUUCCUGACCACUGGUACTT against Gstt1,inactive: -0.493
7,GGCUUGUCAGUGCAUCUCATT against Kif9,inactive: -0.683
8,GCGUGACCAUUAUUUCCUGTT against Vrtn,inactive: 0.983
9,CCACAAUAGCUCGAACCAUTT against Endov,inactive: -0.919
10,GCAAUAAUCGUUCUCAAAATT against Prkab1,inactive: 1.5
11,CCUGCUUGUCUCAAUAGUUTT against Krtap3-2,inactive: -0.518
12,GGAGAAAGUGGACCUUUUGTT against Etfb,inactive: -1.26
13,GCCUUAAUUAAACACGGCCTT against Rbck1,inactive: -0.492
14,GCUCUUAUACGCCUAGGUATT against Upk1a,inactive: -0.166
15,GGCCAUCUCAUUUUCAGGGTT against Olfr749,inactive: 0.286
16,GGCACCAGUAUCAGCCUUUTT against Mrpl15,inactive: 0.637
17,GGUGCAUAAAUAAAUUCCUTT against B230317F23Rik,inactive: 0.586
18,GGGCAACAUGUCACUGAUCTT against Pgbd5,inactive: -0.0682
19,GGCUUACGUGGUGUGCACUTT against Galr1,inactive: 0.345
20,GGAGAUUCACCCUGAGUGUTT against Gtf3c1,inactive: -1.87
21,GGAAGUUCCACGUUAUUGUTT against Eif2b2,inactive: -1.3
22,GCUGGUCAAGUCCUUCUAGTT against Mrpl28,inactive: -0.694

# Quoted at random: 4 entries already listed, in no set order.
row,Sequence,z-score
17,GGUGCAUAAAUAAAUUCCUTT against B230317F23Rik,inactive: 0.586
8,GCGUGACCAUUAUUUCCUGTT against Vrtn,inactive: 0.983
2,CCUUUUAUGCUAGUACUGATT against Olfr1504,inactive: -1.53
6,GGUUCCUGACCACUGGUACTT against Gstt1,inactive: -0.493
